Screen size: about 400,000 compounds; about 13,000 (3.2%) were called active. The shares of active, inactive and inconclusive entries below differ from those in the screen. Calls follow the shape of the dose curve; as a rule, active = well fitted cell-killing curve with a large enough effect; inconclusive = small, poorly fitted or top-dose-only effect, or effect the other way; inactive = flat fitted curve, though single readings scatter. A potency beside an inconclusive call is a rough fit, not a confirmed value.
Assay: qHTS assay for MDR1-selective chemotherapeutics: Primary screen using the drug-selected MDR subline cells KB-V1; also: nearly all actives have a fitted effect of over 60% in size
Details: KB-V1 MDR cells viability, CellTiter-Glo, 72 h; activity change, negative = cytotoxicity: at 46.1 µM (top of the series)
Summary of the method: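 Luminescent ATP read-out (CellTiter-Glo, 10 min) measures survival of drug-selected KB-V1 MDR cells after 72 h, 37 degrees C compound exposure. Medium: phenol-red-free DMEM, 10% FBS. Values from fitted concentration-response curves.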
% is scaled to controls: 0 for no effect and ±100 for the full control effect; potency is read from the fitted curve at half-maximal effect.

Row | Compound | Potency | activity change, negative = cytotoxicity
1 | COC(=O)/C=C/c1cc(F)ccc1S(=O)(=O)Nc1ccccc1 | inconclusive: 16.4 µM [cytotoxic, single point] | –
2 | COc1ccc(NC(=O)C2(C)CCN2Cc2ccc(SC)cc2)cc1OC (stereo not given) | inconclusive: 18.4 µM [cytotoxic, single point] | –
3 | C/C(=N\Nc1ccc(C(=O)c2c(C)cc3ccccn23)cc1[N+](=O)[O-])c1ccc(O)cc1 | – | inconclusive: 0.19%
4 | F[B-](F)(F)c1cncc2ccccc12 | inactive | –
5 | Cc1cc(C)c(C(=O)/C=C/c2cccc3ccccc23)c(=O)[nH]1 | active: 8.2 µM | –
6 | CC(C)CCNC(=O)c1onc(CSc2ccncc2)c1C(=O)NCCC(C)C | inconclusive: 20.6 µM [cytotoxic, single point] | –
7 | COc1cccc(N2CCN(Cc3nnnn3C3CCCCC3)CC2)c1 | active: 23.1 µM | –
8 | CCOC(=O)C1CCCN(c2cc(C)nc3cc(-c4ccc(Cl)cc4)nn23)C1 (stereo not given) | inactive | –
9 | C=CCn1c(SCc2nc3sc4c(c3c(=O)[nH]2)CCCC4)nc2ccccc2c1=O | active: 2.06 µM | –
10 | COc1ccccc1NS(=O)(=O)c1ccc2c(c1)NC(=O)CC(=O)N2 | inconclusive: 18.4 µM [rising, partial curve, poor fit] | –
11 | Cc1ccc(C)n1-c1ccc(C(=O)Nc2ccccc2F)cc1 | inconclusive: 29.1 µM [cytotoxic, single point] | –
12 | Cc1cc(C(=O)CSc2nnc(-c3cccs3)o2)c(C)n1-c1ccccc1 | inactive | –
13 | Cc1ccc(C)c(S(=O)(=O)N2CCN(C(=O)Cc3sc(C)nc3-c3ccc(F)cc3)CC2)c1 | active: 23.1 µM | –
14 | COc1ccc(NC(=O)Cn2nnc(-c3ccc(CN4CCOCC4)cc3)n2)c(OC)c1 | active: 20.6 µM | –
15 | CCOC(=O)c1nn(-c2ccc(OCC)cc2)c2nc(CC(C)C)c(C#N)c(=O)n12 | inconclusive: 20.6 µM [cytotoxic, partial curve, poor fit] | –
16 | CCN(C(=O)CSc1cccc[n+]1[O-])C1CCCCC1 | inconclusive: 29.1 µM [rising, single point] | –
17 | CC1CCN(c2ccc3nnc(CCC(=O)Nc4cccc(F)c4)n3n2)CC1 | inactive | –
18 | c1ccc(Cn2nnnc2C(c2ccccc2)N2CCN(c3nc4ccccc4s3)CC2)cc1 (stereo not given) | inactive | –
19 | COc1ccc(C(C(O)C(=O)c2c[nH]c3ccccc23)N2CCN(c3ccc(OC)cc3)CC2)cc1 (stereo not given) | inconclusive: 29.1 µM [cytotoxic, single point] | –
20 | COCC(=O)N(CCN(C)C)Cc1cc2cc3c(cc2nc1Cl)OCO3 | inactive | –
21 | Nc1c(C(=O)OCC(=O)Nc2ccc(OC(F)F)cc2)[nH]c(=O)[nH]c1=O | inconclusive: 2.91 µM [rising, partial curve] | –
22 | CCOC(=O)c1sc(N(Cc2ccccc2)C(=O)CSc2ncn[nH]2)nc1C | inactive | –
23 | CCCn1nc(C(=O)N2CCCc3ccccc32)c2ccccc2c1=O | inconclusive: 11.6 µM [cytotoxic, partial curve] | –
24 | O=C(CCNC(=O)C1CCN(S(=O)(=O)c2ccccc2)CC1)NCCc1cccc(F)c1 | inconclusive: 0.326 µM [rising, full curve, poor fit] | –

Row | Compound | Potency | activity change, negative = cytotoxicity
25 | CC(C)CCc1noc(CN(C)CCC2CCOCC2)n1 | inactive | –
26 | O=C(Nc1cccc(-c2nc3ccccc3o2)c1)c1ccc(N2C(=O)C3C4C=CC(C4)C3C2=O)cc1 (stereo not given) | inconclusive: 20.6 µM [cytotoxic, single point] | –
27 | COc1cccc(OC2(C)CCN(Cc3ccc(-c4ccccn4)cc3)C2)c1 (stereo not given) | inactive | –
28 | Cc1csc(NC(=O)CSCC(=O)Nc2ccccc2)n1 | inconclusive: 18.4 µM [cytotoxic, partial curve, poor fit] | –
29 | CCN1CCN(S(=O)(=O)c2ccc(Cl)c(C(=O)N(C)Cc3ccc(F)cc3)c2)CC1 | inconclusive: 9.2 µM [cytotoxic, partial curve] | –
30 | CN(Cc1ccccc1)C(=S)NC(=O)C1CCCCC1 | inactive | –
31 | COc1ccccc1S(=O)(=O)Cc1ccc(C(=O)N2CCN(c3ccccc3)CC2)o1 | inconclusive: 18.4 µM [cytotoxic, partial curve, poor fit] | –
32 | Cc1ccc(CNC(=O)COC(=O)c2ccc(Br)o2)cc1 | inconclusive: 18.4 µM [rising, single point] | –
33 | CN(c1ccc(F)cc1)S(=O)(=O)N1CCCC(C(=O)NCCc2ccccc2)C1 (stereo not given) | inactive | –
34 | COc1cc2c(cc1OC)C(C(=O)NCCN(C)C)C(c1cccs1)N(C)C2=O (stereo not given) | inconclusive: 29.1 µM [rising, single point] | –
35 | O=C(Cc1cccs1)Nc1cccc(-c2nc3ccccc3[nH]2)c1 | active: 16.4 µM | –
36 | Cc1ccc(S(=O)(=O)CCC(=O)OCc2cc(=O)oc3cc(C)ccc23)cc1 | inconclusive: 8.2 µM [rising, partial curve] | –
37 | Cc1ccc(-c2cc3nccc(-c4cc([N+](=O)[O-])ccc4O)n3n2)cc1 | – | inconclusive: -15.8%
38 | CCOC(=O)c1c(C)oc2c1cc(O)c1ccccc12 | inconclusive: 29.1 µM [cytotoxic, single point] | –
39 | CCN(CC)S(=O)(=O)c1cccc(NC(=O)CNc2cccc(S(=O)(=O)N3CCOCC3)c2)c1 | active: 20.6 µM | –
40 | CCN(C(=S)Nc1cc(S(=O)(=O)N2CCOCC2)ccc1Cl)c1cccc2ccccc12 | inconclusive: 16.4 µM [cytotoxic, partial curve, poor fit] | –
41 | COC(=O)c1ccc2c(=O)n(CCN3CCOCC3)c(SCC(=O)NCc3ccccc3)nc2c1 | inactive | –
42 | O=C(NCC(c1ccco1)N1CCCC1)c1cccc(NS(=O)(=O)c2ccc(Br)cc2)c1 (stereo not given) | inconclusive: 20.6 µM [cytotoxic, partial curve, poor fit] | –
43 | Cc1cccc(C)c1NC(=O)C(c1ccnc2ccccc12)n1c(=O)c(-c2ccco2)nc2ccccc21 (stereo not given) | inactive | –
44 | CN(C)CCCN(C(=O)c1ccc(S(=O)(=O)N2CCc3ccccc3C2)cc1)c1nc2ccc(F)cc2s1 | inconclusive: 18.4 µM [cytotoxic, single point] | –
45 | COc1cc2c(cc1OC)C(C)N(C(=O)c1ccc(C)o1)CC2 (stereo not given) | active: 16.4 µM | –
46 | CN(CC#CC1(O)c2ccccc2-c2ccccc21)Cc1ccccc1 | active: 8.2 µM | –
47 | C=CCc1ccc(OCCOCCOc2cccc3cccnc23)c(OC)c1 | inconclusive: 23.1 µM [cytotoxic, partial curve, poor fit] | –
48 | CCn1c(C)cc2c(c1=O)C(c1ccccc1)C(C(=O)OC)=C(N)O2 (stereo not given) | inactive | –

Row | Compound | Potency | activity change, negative = cytotoxicity
49 | Cn1nnc(NC(=O)c2cccs2)n1 | inconclusive: 10.3 µM [rising, partial curve] | –
50 | CCCC1=C(C(=O)OCC)C(c2ccc(OC)c(CSc3ccccn3)c2)C(C#N)=C(N)O1 (stereo not given) | active: 20.6 µM | –
51 | CCCCCC(O)(c1ccc(OCC)cc1)C(CN1CCOCC1)c1ccccc1 (stereo not given) | inconclusive: 32.6 µM [cytotoxic, partial curve, poor fit] | –
52 | C/C(=N\N=C(N)N)c1ccc(Cl)cc1Cl | inconclusive: 10.3 µM [cytotoxic, partial curve] | –
53 | CC(C)C(C)(C#N)NC(=O)CSc1ncnc2sc(-c3ccccc3)cc12 (stereo not given) | active: 23.1 µM | –
54 | COc1ccc(Cc2nc3ccc(C(=O)NCc4cccc(C)n4)cc3o2)cc1OC | inconclusive: 20.6 µM [cytotoxic, single point] | –
55 | COc1ccc(NS(=O)(=O)c2cc(NS(=O)(=O)c3cc(C(=O)O)ccc3OC)ccc2C)cc1 | inconclusive: 29.1 µM [rising, single point] | –
56 | Cc1ccc(-n2c(-c3c(-c4ccccc4)noc3C)n[nH]c2=S)cc1 | inconclusive: 20.6 µM [cytotoxic, partial curve, poor fit] | –
57 | Oc1cccc2cc(-c3ccncc3)cnc12 | inconclusive: 5.17 µM [cytotoxic, partial curve] | –
58 | CCCc1nc2ccccc2c(=O)n1CCc1ccccc1 | inconclusive: 29.1 µM [cytotoxic, single point] | –
59 | Cc1ccc(-c2cc(C(=O)NCCCN3CCOCC3)c3ccccc3n2)cc1C | inactive | –
60 | CCOc1ccc(CCNC(=O)COc2cc(=O)n(C)c3ccccc23)cc1OCC | inconclusive: 25.9 µM [cytotoxic, single point] | –
61 | C=C[C@H]1[C@H](O[C@@H]2O[C@H](CO)[C@@H](O)[C@H](O)[C@H]2O)OC=C2C(=O)OCC[C@]21O | inconclusive: 20.6 µM [rising, partial curve, poor fit] | –
62 | COc1ccc(C(=O)OC(C)CN2CCN(C)CC2)cc1OC (stereo not given) | – | inconclusive: 30.6%
63 | COc1ccc2cc(CN(C(=O)Nc3ccccc3OC)C3CCCC3)c(=O)[nH]c2c1 | inconclusive: 18.4 µM [cytotoxic, partial curve, poor fit] | –
64 | COc1ccc(C)cc1Nc1cc(C)nc2nc(C)nn12 | inconclusive: 18.4 µM [cytotoxic, partial curve, poor fit] | –
65 | Cc1cc(C)c(S(=O)(=O)N(C)CC(=O)N2CCCC2)c(C)c1 | inactive | –
66 | C[C@H](CO)NC(=O)c1nc[nH]c1C(=O)N[C@@H](C)c1ccccc1 | inactive | –
67 | Cc1ccc(C(C(=O)NC2CCCC2)N(C(=O)Cc2cccs2)c2ccc(C)c(C)c2)o1 (stereo not given) | active: 20.6 µM | –
68 | O=C(COc1ccc(Cl)cc1)NCCS(=O)(=O)N1CCN(c2ccc(F)cc2)CC1 | inconclusive: 20.6 µM [cytotoxic, single point] | –
69 | Cc1ccc(-c2cc(NC=O)c3ncc(-c4cnn(C)c4)n3c2)cc1 | active: 5.8 µM | –
70 | Cc1c(C(=O)Nc2nc3ccccc3[nH]2)oc2ccccc12 | inconclusive: 29.1 µM [cytotoxic, single point] | –

Numbers 56–58, reprinted for reference:
Row | Compound | Potency | activity change, negative = cytotoxicity
56 | Cc1ccc(-n2c(-c3c(-c4ccccc4)noc3C)n[nH]c2=S)cc1 | inconclusive: 20.6 µM [cytotoxic, partial curve, poor fit] | –
57 | Oc1cccc2cc(-c3ccncc3)cnc12 | inconclusive: 5.17 µM [cytotoxic, partial curve] | –
58 | CCCc1nc2ccccc2c(=O)n1CCc1ccccc1 | inconclusive: 29.1 µM [cytotoxic, single point] | –

Source: PubChem BioAssay AID1347076 (National Center for Advancing Translational Sciences (NCATS), 2019)
